B1: PRKRA (protein, UniProt O75569 1-313)
chain: MSQSRHRAEAPPLEREDSGTFSLGKMITAKPGKTPIQVLHEYGMKTKNIPVYECERSDVQIHVPTFTFRVTVGDITCTGEGTSKKLAKHRAAEAAINILKANASICFAVPDPLMPDPSKQPKNQLNPIGSLQELAIHHGWRLPEYTLSQEGGPAHKREYTTICRLESFMETGKGASKKQAKRNAAEKFLAKFSNISPENHISLTNVVGHSLGCTWHSLRNSPGEKINLLKRSLLSIPNTDYIQLLSEIAKEQGFNITYLDIDELSANGQYQCLAELSTSPITVCHGSGISCGNAQSDAAHNALQYLKIIAERK
B2: THRAP3 (protein, UniProt Q9Y2W1 1-955)
chain: MSKTNKSKSGSRSSRSRSASRSRSRSFSKSRSRSRSLSRSRKRRLSSRSRSRSYSPAHNRERNHPRVYQNRDFRGHNRGYRRPYYFRGRNRGFYPWGQYNRGGYGNYRSNWQNYRQAYSPRRGRSRSRSPKRRSPSPRSRSHSRNSDKSSSDRSRRSSSSRSSSNHSRVESSKRKSAKEKKSSSKDSRPSQAAGDNQGDEAKEQTFSGGTSQDTKASESSKPWPDATYGTGSASRASAVSELSPRERSPALKSPLQSVVVRRRSPRPSPVPKPSPPLSSTSQMGSTLPSGAGYQSGTHQGQFDHGSGSLSPSKKSPVGKSPPSTGSTYGSSQKEESAASGGAAYTKRYLEEQKTENGKDKEQKQTNTDKEKIKEKGSFSDTGLGDGKMKSDSFAPKTDSEKPFRGSQSPKRYKLRDDFEKKMADFHKEEMDDQDKDKAKGRKESEFDDEPKFMSKVIGANKNQEEEKSGKWEGLVYAPPGKEKQRKTEELEEESFPERSKKEDRGKRSEGGHRGFVPEKNFRVTAYKAVQEKSSSPPPRKTSESRDKLGAKGDFPTGKSSFSITREAQVNVRMDSFDEDLARPSGLLAQERKLCRDLVHSNKKEQEFRSIFQHIQSAQSQRSPSELFAQHIVTIVHHVKEHHFGSSGMTLHERFTKYLKRGTEQEAAKNKKSPEIHRRIDISPSTFRKHGLAHDEMKSPREPGYKAEGKYKDDPVDLRLDIERRKKHKERDLKRGKSRESVDSRDSSHSRERSAEKTEKTHKGSKKQKKHRRARDRSRSSSSSSQSSHSYKAEEYTEETEEREESTTGFDKSRLGTKDFVGPSERGGGRARGTFQFRARGRGWGRGNYSGNNNNNSNNDFQKRNREEEWDPEYTPKSKKYYLHDDREGEGSDKWVSRGRGRGAFPRGRGRFMFRKSSTSPKWAHDKFSGEEGEIEDDESGTENREEKDNIQPTTE
B3: MLF2 (protein, UniProt Q15773 1-248)
chain: MFRFMRDVEPEDPMFLMDPFAIHRQHMSRMLSGGFGYSPFLSITDGNMPGTRPASRRMQQAGAVSPFGMLGMSGGFMDMFGMMNDMIGNMEHMTAGGNCQTFSSSTVISYSNTGDGAPKVYQETSEMRSAPGGIRETRRTVRDSDSGLEQMSIGHHIRDRAHILQRSRNHRTGDQEERQDYINLDESEAAAFDDEWRRETSRFRQQRPLEFRRLESSGAGGRRAEGPPRLAIQGPEDSPSRQSRRYDW
B4: MORC2 (protein, UniProt Q9Y6X9 1-1032)
chain: MAFTNYSSLNRAQLTFEYLHTNSTTHEFLFGALAELVDNARDADATRIDIYAERREDLRGGFMLCFLDDGAGMDPSDAASVIQFGKSAKRTPESTQIGQYGNGLKSGSMRIGKDFILFTKKEDTMTCLFLSRTFHEEEGIDEVIVPLPTWNARTREPVTDNVEKFAIETELIYKYSPFRTEEEVMTQFMKIPGDSGTLVIIFNLKLMDNGEPELDIISNPRDIQMAETSPEGTKPERRSFRAYAAVLYIDPRMRIFIHGHKVQTKRLSCCLYKPRMYKYTSSRFKTRAEQEVKKAEHVARIAEEKAREAESKARTLEVRLGGDLTRDSRVMLRQVQNRAITLRREADVKKRIKEAKQRALKEPKELNFVFGVNIEHRDLDGMFIYNCSRLIKMYEKVGPQLEGGMACGGVVGVVDVPYLVLEPTHNKQDFADAKEYRHLLRAMGEHLAQYWKDIAIAQRGIIKFWDEFGYLSANWNQPPSSELRYKRRRAMEIPTTIQCDLCLKWRTLPFQLSSVEKDYPDTWVCSMNPDPEQDRCEASEQKQKVPLGTFRKDMKTQEEKQKQLTEKIRQQQEKLEALQKTTPIRSQADLKKLPLEVTTRPSTEEPVRRPQRPRSPPLPAVIRNAPSRPPSLPTPRPASQPRKAPVISSTPKLPALAAREEASTSRLLQPPEAPRKPANTLVKTASRPAPLVQQLSPSLLPNSKSPREVPSPKVIKTPVVKKTESPIKLSPATPSRKRSVAVSDEEEVEEEAERRKERCKRGRFVVKEEKKDSNELSDSAGEEDSADLKRAQKDKGLHVEVRVNREWYTGRVTAVEVGKHVVRWKVKFDYVPTDTTPRDRWVEKGSEDVRLMKPPSPEHQSLDTQQEGGEEEVGPVAQQAIAVAEPSTSECLRIEPDTTALSTNHETIDLLVQILRNCLRYFLPPSFPISKKQLSAMNSDELISFPLKEYFKQYEVGLQNLCNSYQSRADSRAKASEESLRTSERKLRETEEKLQKLRTNIVALLQKVQEDIDINTDDELDAYIEDLITKGD
B5: SNW1 (protein, UniProt Q13573 1-536)
chain: MALTSFLPAPTQLSQDQLEAEEKARSQRSRQTSLVSSRREPPPYGYRKGWIPRLLEDFGDGGAFPEIHVAQYPLDMGRKKKMSNALAIQVDSEGKIKYDAIARQGQSKDKVIYSKYTDLVPKEVMNADDPDLQRPDEEAIKEITEKTRVALEKSVSQKVAAAMPVRAADKLAPAQYIRYTPSQQGVAFNSGAKQRVIRMVEMQKDPMEPPRFKINKKIPRGPPSPPAPVMHSPSRKMTVKEQQEWKIPPCISNWKNAKGYTIPLDKRLAADGRGLQTVHINENFAKLAEALYIADRKAREAVEMRAQVERKMAQKEKEKHEEKLREMAQKARERRAGIKTHVEKEDGEARERDEIRHDRRKERQHDRNLSRAAPDKRSKLQRNENRDISEVIALGVPNPRTSNEVQYDQRLFNQSKGMDSGFAGGEDEIYNVYDQAWRGGKDMAQSIYRPSKNLDKDMYGDDLEARIKTNRFVPDKEFSGSDRRQRGREGPVQFEEDPFGLDKFLEEAKQHGGSKRPSDSSRPKEHEHEGKKRRKE

Results are given in words; binding and its absence hold for the method and conditions named. In cells and extracts the contact can be indirect. A yes stands for co-enrichment or nearness to the bait. Other partners may have been found.

The experiment has as its target LINE-1 encoded ORF1p (human) (human (endogenous in LUHMES)). Put plainly: affinity purification with mass spectrometry.
Regarding B1, the binding entry is reported as “binds”.
In the case of B2 it was “binds”.
In the case of B3 it was “binds”; in that of B4, “binds”.
Consider B5, for which the binding entry was “binds”.
